Test results as given in publication PMC7819943, “Rice protein-binding microarrays: a tool to detect cis-acting elements near promoter regions in rice”.
The other results are listed elsewhere or left out.

Chains of the proteins cited; added tags and fusions are not shown.
UniProt Q0JBA9, entry or part of it: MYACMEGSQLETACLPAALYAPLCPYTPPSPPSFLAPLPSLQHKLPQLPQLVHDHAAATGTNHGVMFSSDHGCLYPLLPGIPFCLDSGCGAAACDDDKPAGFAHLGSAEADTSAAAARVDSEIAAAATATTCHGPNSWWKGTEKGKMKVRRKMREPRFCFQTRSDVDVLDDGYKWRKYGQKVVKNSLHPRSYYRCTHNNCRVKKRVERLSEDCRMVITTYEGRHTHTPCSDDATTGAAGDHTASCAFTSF

biological target: OsWRKY34 (Oryza sativa, UniProt Q0JBA9 1-250); test: protein-binding microarray (RPBM); PBS, 2% BSA, 51.3 ng/ul salmon testes DNA, 50 uM zinc acetate, 200 nM TF, 25 C, 1 h; high values mean tight binding; conditions: protein: recombinant; tags: N-terminal polyhistidine and DsRed monomer fusion (pET32a); label: CyDye5-dUTP incorporated in the synthesized complementary strand; 3' TTTTT single-stranded linker to array surface; dsDNA, one strand shown
Procedure, shortened: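 In PBS with 2% BSA, salmon testes DNA and 50 µM zinc acetate, 200 nM protein was incubated on a custom Agilent array at 25 °C for 1 h and then washed off. The array had been made double-stranded by primer extension with Cy5-dUTP and blocked with 2% BSA. The proteins were transcription factors fused N-terminally to polyhistidine and DsRed, expressed in E. coli BL21-CodonPlus and purified on Ni–NTA. The binding signal is per-feature fluorescence intensity (arbitrary units) from an Axon 4000B scanner.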

| Sequence | binding signal |
| --- | --- |
| TAAAGTCTTAACTTGTGTGGGATGGGATATTGCATGATGACGGAGTCACCTAGTGCAG | 8260 fluorescence intensity (a.u.) |
| TCCACTCTCGAGCTTAATTCATCGTTTCCTTCGTCTTTCCCGGAGTCACCTAGTGCAG | 10300 fluorescence intensity (a.u.) |
| TTCACACGTTGTTATGCATAGGTATTTTTGCTAGTCAAGTCGGAGTCACCTAGTGCAG | 8720 fluorescence intensity (a.u.) |
| TTTTTTTTACCGGCCTAGTTGACCACCAACCAAGCAGTACCGGAGTCACCTAGTGCAG | 10100 fluorescence intensity (a.u.) |
| CTTGCTGGTGATACGTACTCGTATAATTATTAATCCTATCCGGAGTCACCTAGTGCAG | 9860 fluorescence intensity (a.u.) |
| TTTTAACCCTAGGATCCAAATATCATGCACTCCTTTTTTTCGGAGTCACCTAGTGCAG | 8820 fluorescence intensity (a.u.) |
| TTTCATCTACCTTTGTTTTATTCTGTCGTACTTGGGCTTGCGGAGTCACCTAGTGCAG | 8340 fluorescence intensity (a.u.) |
| AAAAATTTTTGGAGGCGGAGGGAAGGGGTGGTGTTGGGGTCGGAGTCACCTAGTGCAG | 10200 fluorescence intensity (a.u.) |
| GTTTGTTTCCTACTAGTGTGCTTCTACTAATCTTGCATTCCGGAGTCACCTAGTGCAG | 9080 fluorescence intensity (a.u.) |
| TAAATTTAGTCATCTCTAGTTGCTTTTACGTCTCCTGAATCGGAGTCACCTAGTGCAG | 8230 fluorescence intensity (a.u.) |
| CATATCTGCTCCGTGCCATGGTTCTTCTGTCTGGAAAGACCGGAGTCACCTAGTGCAG | 13900 fluorescence intensity (a.u.) |
| GTTGTCATTGTCGCGTCGTCACCTCTGATTGCGTCATTCCCGGAGTCACCTAGTGCAG | 16500 fluorescence intensity (a.u.) |
| TGAGGGACCTTCGGTGTACTTTTTCCCCGATCCTACACATCGGAGTCACCTAGTGCAG | 8580 fluorescence intensity (a.u.) |
| TGTTATCAGCTTTTCTAACCTTTGCGTTCTCACTTTTGACCGGAGTCACCTAGTGCAG | 8930 fluorescence intensity (a.u.) |
| GAATAAAACGAACGGTCAAACATGTTTAAAAAAGTCAACGCGGAGTCACCTAGTGCAG | 10300 fluorescence intensity (a.u.) |
| ACCGACCAATGATGATTTGATTTCCCACTGGACTGGTATACGGAGTCACCTAGTGCAG | 9440 fluorescence intensity (a.u.) |
| TCGTCGTCGTCGTCGTCGCCGCCGCGGCCTGCAATTGCAACGGAGTCACCTAGTGCAG | 9050 fluorescence intensity (a.u.) |
| CCTTCTCGCAGTCGCCGCACTCGCCGTCCTCCAGTGGCCTCGGAGTCACCTAGTGCAG | 8860 fluorescence intensity (a.u.) |
| GGAGCCGCCGGGGCGGGTGGTGGGTGGAAGGCTCCATTGCCGGAGTCACCTAGTGCAG | 13800 fluorescence intensity (a.u.) |
| AGAAGGAGGAGGAGGAGGAGGAGGAGGAGGGGAGGAGAGCCGGAGTCACCTAGTGCAG | 10400 fluorescence intensity (a.u.) |
| CCATTCGTGCGCCCTCAGCCATTGTACCCCTTTTCCACTCCGGAGTCACCTAGTGCAG | 9970 fluorescence intensity (a.u.) |
| ATTATGCATGTGATTTGCCATTTTACAGATTATCTCTTTTCGGAGTCACCTAGTGCAG | 9590 fluorescence intensity (a.u.) |
| TAATGACTTTTTCTTTTGTTTTTGGTGGCTTAACTTCATCCGGAGTCACCTAGTGCAG | 9880 fluorescence intensity (a.u.) |
| AATTTATATTGTTTTGTTATCTTACCCATTTTGTTTACTTCGGAGTCACCTAGTGCAG | 9580 fluorescence intensity (a.u.) |
| CGGTTATCTCTACTCTACAATCTTGTTGTAATTTTTTTCTCGGAGTCACCTAGTGCAG | 8070 fluorescence intensity (a.u.) |
| TGCGTGGGCGTCACGTTCGTCGACTACTTGGGCGGGAGGGCGGAGTCACCTAGTGCAG | 12900 fluorescence intensity (a.u.) |
| TCCTCATTCCTTGTTTGGTTTCACGTCGAATTCCCTCCAACGGAGTCACCTAGTGCAG | 8680 fluorescence intensity (a.u.) |

| Sequence | binding signal |
| --- | --- |
| CTCAACACTTTTAGGCCTGCCTCTGCCTCTGCCTCTCTATCGGAGTCACCTAGTGCAG | 8140 fluorescence intensity (a.u.) |
| TTTAACTCTCGTTTTTGGTTCCCAAGGTGTGAAATTCTGTCGGAGTCACCTAGTGCAG | 10400 fluorescence intensity (a.u.) |
| TACGCTGTGATCCCCGTCTTCAATTTCTCGTTCGCTCTCACGGAGTCACCTAGTGCAG | 12800 fluorescence intensity (a.u.) |
| ATTTTGGTTTCATTGGCTTTACTTCAAGACAATCAGCTTTCGGAGTCACCTAGTGCAG | 8270 fluorescence intensity (a.u.) |
| TCCCCGTTGCTTTTGCTCTTCGTCAGATTAATCCTTTCCTCGGAGTCACCTAGTGCAG | 13300 fluorescence intensity (a.u.) |
| TCTCTTAGCGCATTTTTTTTACTAGGACCTATTAACTTAACGGAGTCACCTAGTGCAG | 9440 fluorescence intensity (a.u.) |
| TTCTGGTTTTATGGTTAAGTTGAGGGATCTCCGGTGAACTCGGAGTCACCTAGTGCAG | 9460 fluorescence intensity (a.u.) |
| GCGTCAGCAACCCAGCCCAAGCCTATCCTAGCGTCGTCATCGGAGTCACCTAGTGCAG | 8120 fluorescence intensity (a.u.) |
| GTTGTATATAGAATATATATTGATCTGTTACATGTAAATTCGGAGTCACCTAGTGCAG | 8090 fluorescence intensity (a.u.) |
| CTCCGATTCTAGCCTACCTCGCTCGCTCGCTCGCTCGCTCCGGAGTCACCTAGTGCAG | 9480 fluorescence intensity (a.u.) |
| TTTAAATCTATTTTTTTTCTGGGGTTATATATTTTTTATACGGAGTCACCTAGTGCAG | 9420 fluorescence intensity (a.u.) |
| ATGATATGTTCCATACTAAATTTATTGTTTTTTTGATAGTCGGAGTCACCTAGTGCAG | 9170 fluorescence intensity (a.u.) |
| CTCTCCTCCTCCACCTCGCTGACGCTTTGTCCCTTTATTCCGGAGTCACCTAGTGCAG | 9930 fluorescence intensity (a.u.) |
| ACCTTGACCTTTACTGGCATTTTTCAGTCATCAACTACTACGGAGTCACCTAGTGCAG | 9620 fluorescence intensity (a.u.) |
| TTGCCTCTCGCTGCCTTGCCCCACAGCGACCGGTCTCGTACGGAGTCACCTAGTGCAG | 8810 fluorescence intensity (a.u.) |
| CGTTGGGCCCCATGCTTCTCTAATCACTCGATCTCTCCCACGGAGTCACCTAGTGCAG | 10600 fluorescence intensity (a.u.) |
| CTAAGGCCTGTTGCCTGCTCTAGTCTGATTCAACTTTCAACGGAGTCACCTAGTGCAG | 8830 fluorescence intensity (a.u.) |
| CGTGGACGCCGCGCTTACCGTCACCTCCGCCGGGCCCACCCGGAGTCACCTAGTGCAG | 8460 fluorescence intensity (a.u.) |
| TTAACGTACACCCACGCTTACCATCATCAAATCGAAATCGCGGAGTCACCTAGTGCAG | 8350 fluorescence intensity (a.u.) |
| GATAGCCCTACTTACCCGGCCCATAATCACGATGGGCCAGCGGAGTCACCTAGTGCAG | 8040 fluorescence intensity (a.u.) |
| GCTCTCTCGTCTCTTATCTTCTCTCGCGCGCACAGTGATGCGGAGTCACCTAGTGCAG | 8910 fluorescence intensity (a.u.) |
| CCCGACCAAACACTACGAACTCTTCTACCTTCTTTGTTTCCGGAGTCACCTAGTGCAG | 12600 fluorescence intensity (a.u.) |
| AAGATTGTCCGAAGGCCCCTTGCTTGTGTTGCCAGATTTCCGGAGTCACCTAGTGCAG | 9870 fluorescence intensity (a.u.) |
| CGTCAATCCAGTGATCCGTCTCTTTCCTGCGTACTATATCCGGAGTCACCTAGTGCAG | 10400 fluorescence intensity (a.u.) |
| AGTTTGCATATATATACGCTGTCTTTTTGCTGGACAACAACGGAGTCACCTAGTGCAG | 8940 fluorescence intensity (a.u.) |
| TCACGCATCGGCGCCGCCCTCCGGCCAGCAGCGACTCGCCCGGAGTCACCTAGTGCAG | 44600 fluorescence intensity (a.u.) |
| CCGATCCATTCCCAATCCCATCCCATCCCATCGATCGATCCGGAGTCACCTAGTGCAG | 9460 fluorescence intensity (a.u.) |

As entered above.
In binding signal, TCTCTTAGCGCATTTTTTTTACTAGGACCTATTAACTTAACGGAGTCACCTAGTGCAG shows 9440 fluorescence intensity (a.u.)
In binding signal, TTCTGGTTTTATGGTTAAGTTGAGGGATCTCCGGTGAACTCGGAGTCACCTAGTGCAG shows 9460 fluorescence intensity (a.u.)
